Results deposited as PubChem BioAssay AID686938 (Drosophila RNAi Screening Center, 2013).
Aim: 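Knock-downs reducing store-operated calcium influx in Drosophila cells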 (primary screen). Cell system: Drosophila S2R+ cells. Reagent: long dsRNA against Drosophila genes, about 0.25 µg dsRNA per well, roughly 10,000 cells. Timing: 5 days of knock-down before the calcium assay. Challenge: thapsigargin (SERCA pump blocker) to empty calcium stores; entry signal taken 4 min after adding it. Read-out: 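Per-well fluo-4 fluorescence in two replicates, unnormalised, measured in resting cells and 4 min after store depletion by the SERCA blocker thapsigargin; ratio of the two present in few wells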. Reading the numbers: calcium entry signal: higher = stronger calcium signal after store depletion; resting calcium signal: higher = higher resting calcium signal. Rule for the call: 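Called when the plate z-score of the entry-to-rest ratio, mean of duplicates, falls below −3; wells with low overall dye signal (Fmax z below −2) or more than five off-targets excluded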. Meaning of the calls: active = strongly reduced calcium entry; inactive = no strong reduction.
The deposit covers about 23,000 reagents; below is an unselected part of those that have a named target and a result. Of all reagents, 75 (0.33%) are marked active. 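Raw plate signals without normalisation; calls rest on plate z-scores that were not deposited; ratio present for only 364 wells.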 A number with no mark means an inactive call. Names joined by + are all predicted targets of the reagent. No sequences are given here. Not stated in the record: the dose of the treatment.

The opening 3 entries, to show the layout:
gene | dsRNA | calcium entry signal, replicate 1 (fluorescence units) | calcium entry signal, replicate 2 (fluorescence units) | resting calcium signal, replicate 1 (fluorescence units) | resting calcium signal, replicate 2 (fluorescence units)
CG42857 | DRSC12750 | 3.27e7 | 4.55e7 | 1.65e7 | 2.13e7
CG42445 | DRSC10858 | 4.71e7 | 5.05e7 | 2.88e7 | 2.08e7
CG33966 | DRSC08256 | 3.01e7 | 3.40e7 | 1.51e7 | 1.58e7

The listing, repeating the preview:
gene | dsRNA | calcium entry signal, replicate 1 (fluorescence units) | calcium entry signal, replicate 2 (fluorescence units) | resting calcium signal, replicate 1 (fluorescence units) | resting calcium signal, replicate 2 (fluorescence units)
CG42857 | DRSC12750 | 3.27e7 | 4.55e7 | 1.65e7 | 2.13e7
CG42445 | DRSC10858 | 4.71e7 | 5.05e7 | 2.88e7 | 2.08e7
CG33966 | DRSC08256 | 3.01e7 | 3.40e7 | 1.51e7 | 1.58e7
snRNA:U1:95Cc + snRNA:U1:95Cb | DRSC13641 | 3.64e7 | 3.41e7 | 1.66e7 | 1.66e7
Oscillin | DRSC03001 | 4.75e7 | 3.75e7 | 2.53e7 | 1.87e7
UQCR-11L (Ubiquinol-cytochrome c reductase 11 kDa subunit-like) | DRSC22166 | 3.38e7 | 5.07e7 | 1.64e7 | 2.54e7
Trpml + CG42638 | DRSC11032 | 5.14e7 (active) | 4.26e7 | 4.43e7 | 2.83e7
CG14834 | DRSC10204 | 2.11e7 | 3.37e7 | 1.02e7 | 1.34e7
LTV1 (LTV1 ribosome biogenesis factor) | DRSC05951 | 2.98e7 | 3.00e7 | 1.59e7 | 1.56e7
Gr59f (Gustatory receptor 59f) | DRSC04499 | 3.79e7 | 3.73e7 | 1.83e7 | 1.81e7
tow (target of wingless) | DRSC10192 | 2.38e7 | 3.27e7 | 1.67e7 | 1.84e7
tow (target of wingless) | DRSC23125 | 4.32e7 | 3.07e7 | 2.04e7 | 1.43e7
Mgat2 | DRSC16347 | 4.16e7 | 5.85e7 | 2.07e7 | 2.44e7
CG9263 | DRSC03176 | 3.57e7 | 2.29e7 | 1.66e7 | 1.15e7
beat-Ic (beaten path Ic) | DRSC01524 | 3.67e7 | 4.19e7 | 2.05e7 | 2.00e7
beat-Ic (beaten path Ic) | DRSC03491 | 4.40e7 | 3.95e7 | 1.93e7 | 1.91e7
Mal-A5 (Maltase A5) | DRSC07232 | 3.86e7 | 3.37e7 | 1.64e7 | 1.61e7
fd59A (forkhead domain 59A) | DRSC04685 | 3.74e7 | – | 1.87e7 | –
numb | DRSC03584 | 4.23e7 | – | 1.86e7 | –
jvl (javelin-like) | DRSC13053 | 5.01e7 | 5.01e7 | 2.55e7 | 2.36e7
jvl (javelin-like) | DRSC15495 | 2.95e7 | 4.22e7 | 1.33e7 | 1.71e7
Fer1HCH (Ferritin 1 heavy chain homologue) | DRSC16671 | 2.29e7 | 2.63e7 | 1.32e7 | 1.44e7
CG4953 | DRSC02792 | 4.13e7 | – | 2.04e7 | –
lmgA + lmgB | DRSC03566 | 3.04e7 | 4.48e7 | 1.51e7 | 1.92e7
CG14852 | DRSC14976 | 3.20e7 | 5.81e7 | 1.66e7 | 6.86e7
Act42A (Actin 42A) | DRSC04835 | 3.73e7 | 3.77e7 | 1.89e7 | 1.79e7
CG18537 | DRSC06764 | 4.80e7 | 6.58e7 | 2.06e7 | 3.07e7
Sec71 (Secretory 71) | DRSC01893 | 4.13e7 | 2.66e7 | 1.83e7 | 1.33e7
CG31627 | DRSC22143 | 2.74e7 | 2.89e7 | 1.30e7 | 1.42e7
TM4SF (Transmembrane 4 superfamily) | DRSC04661 | 2.64e7 | – | 1.21e7 | –
AstC-R2 (Allatostatin C receptor 2) | DRSC10051 | 3.11e7 | 4.39e7 | 1.81e7 | 1.70e7
CG7299 | DRSC03043 | 3.68e7 | 4.14e7 | 1.73e7 | 1.87e7
Hsp70Bb + Hsp70Bbb | DRSC15885 | 4.37e7 | 2.20e7 | 2.18e7 | 1.18e7
Cpr78E (Cuticular protein 78E) | DRSC11807 | 2.99e7 | 4.40e7 | 1.39e7 | 1.88e7
kra (krasavietz) | DRSC12320 | 2.46e7 | 3.23e7 | 1.29e7 | 1.70e7
CG14669 | DRSC12065 | 2.78e7 | 4.13e7 | 1.45e7 | 2.00e7
CG14669 | DRSC12067 | 2.77e7 | 3.40e7 | 1.35e7 | 1.60e7
CG14669 | DRSC12068 | 2.69e7 | 3.09e7 | 1.28e7 | 1.36e7
CG14669 | DRSC12255 | 4.60e7 | 3.48e7 | 2.27e7 | 1.74e7
CG31643 | DRSC00906 | 2.45e7 | 3.69e7 | 1.35e7 | 1.77e7
CG18628 | DRSC10328 | 2.51e7 | 3.73e7 | 1.29e7 | 1.62e7
mud (mushroom body defect) | DRSC19019 | 2.62e7 | 5.23e7 | 1.49e7 | 2.92e7
Fbp1 (Fat body protein 1) | DRSC11166 | 5.70e7 | 6.74e7 | 2.29e7 | 2.64e7
Zip71B (Zinc/iron regulated transporter-related protein 71B) | DRSC09686 | 4.19e7 | 5.39e7 | 1.85e7 | 2.03e7
CG8607 | DRSC11012 | 2.41e7 | 3.25e7 | 1.15e7 | 1.52e7
Sry-alpha (Serendipity alpha) | DRSC16867 | 4.62e7 | 4.84e7 | 2.40e7 | 2.49e7
spo (spook) | DRSC11127 | 3.44e7 | 4.74e7 | 1.59e7 | 2.14e7
THADA | DRSC19675 | 3.41e7 | 3.96e7 | 1.61e7 | 1.84e7
CG3909 | DRSC14150 | 1.87e7 | 2.39e7 | 1.15e7 | 1.31e7
CG30427 | DRSC04014 | 2.34e7 | 4.04e7 | 1.18e7 | 1.72e7
CG30427 | DRSC04311 | 2.43e7 | – | 1.31e7 | –
CG30427 | DRSC04323 | 4.66e7 | 5.00e7 | 2.28e7 | 2.50e7
RpS19a (Ribosomal protein S19a) | DRSC20281 | 1.05e7 | 9.13e6 | 8.08e6 | 6.75e6
CG8910 | DRSC07414 | 3.85e7 | 5.98e7 | 1.64e7 | 2.49e7
CCKLR-17D3 (Cholecystokinin-like receptor at 17D3) | DRSC20015 | 5.47e7 | 1.88e7 | 2.21e7 | 9.45e6
CCKLR-17D3 (Cholecystokinin-like receptor at 17D3) | DRSC20017 | 5.36e7 | 3.81e7 | 2.36e7 | 1.57e7
CG7379 | DRSC16237 | 4.44e7 | 4.35e7 | 2.15e7 | 1.99e7
Gs1l (GS1-like) | DRSC00754 | 2.53e7 | 2.50e7 | 1.20e7 | 1.13e7
